Data on one molecule can be found in patent US20210395318A1.

Results are given in words; binding and its absence hold for the method and conditions named. A result given as binding can be weak or reduced; the word gives no strength.

This experiment addresses cynomolgus FAP (cynomolgus). The experiment can be described thus: SPR. For orientation: In SPR one partner is held on a chip, and binding of the other changes the refractive index at the surface.

B1: DARPin Protein #5 (designed binder)
chain: GSDLGKKLLEAARAGQDDEVRELLKAGADVNAKDYFSHTPLHLAARNGHLKIVEVLLKAGADVNAKDFAGKTPLHLAAADGHLEIVEVLLKAGADVNAQDIFGKTPADIAADAGHEDIAEVLQKAAGSPTPTPTTPTPTPTTPTPTPTGSDLGKKLLEAARAGQDDEVRILLAAGADVNAKDVLGWTPLHLAAFEGHLEIVEVLLKAGADVNAKDKKGWTPLQLAARTGHLEIVEVLLKAGADVNAKDHIGATPLHLAAWQGHPEIVEVLLKAGADVNAQDKSGKTPADLAADAGHEDIAEVLQKAAGSPTPTPTTPTPTPTTPTPTPTGSDLGKKLLQAARAGQLDEVRELLKAGADVNAKDTWGFTPLHIAAESGHLEIVEVLLKAGADVNAKDVQGRTPLHIAAHSGHLEIVEVLLKAGADVNAKDFRGWTPLHLAAWSGHLEIVEILLKAGADVNAQDKSGKTPADLAARAGHQDIAEVLQKAAGSPTPTPTTPTPTPTTPTPTPTGSDLGKKLLQAARAGQLDEVRELLKAGADVNAKDTWGFTPLHIAAESGHLEIVEVLLKAGADVNAKDVQGRTPLHIAAHSGHLEIVEVLLKAGADVNAKDFRGWTPLHLAAWSGHLEIVEILLKAGADVNAQDKSGKTPADLAARAGHQDIAEVLQKAA
As to B1, the binding entry is recorded as “binds”.
